Earlier results, collected in US7351424B2, “Enhanced purity trans-lutein-ester compositions and methods of making same” (Bio Lut S.A. de C.V., priority 2004, dated 2008).
Some of these results come from one statement about several compounds together. At least one compound was matched to its structure with a doubt left.

System: age-related degeneration of the macula in the human eye (MAD)
Details: consumption of lutein and zeaxanthin together, mature people (Seddon et al. 1994)

| SMILES | reduction of the risk of developing MAD |
| --- | --- |
| CC1=C[C@H](O)CC(C)(C)[C@H]1/C=C/C(C)=C/C=C/C(C)=C/C=C/C=C(C)/C=C/C=C(C)/C=C/C1=C(C)C[C@@H](O)CC1(C)C [lutein] | up to 40% |
| CC1=C(/C=C/C(C)=C/C=C/C(C)=C/C=C/C=C(C)/C=C/C=C(C)/C=C/C2=C(C)C[C@@H](O)CC2(C)C)C(C)(C)C[C@H](O)C1 [zeaxanthin] | up to 40% |
